The results in this text go back to patent US7737155B2, “Nitrogen-containing heterocyclic compounds and methods of use thereof” (Schering Corporation, priority 2005, dated 2010).

By UniProt entry, the sequences of proteins in these tests, tags left out.
UniProt Q8TDS4, whole entry: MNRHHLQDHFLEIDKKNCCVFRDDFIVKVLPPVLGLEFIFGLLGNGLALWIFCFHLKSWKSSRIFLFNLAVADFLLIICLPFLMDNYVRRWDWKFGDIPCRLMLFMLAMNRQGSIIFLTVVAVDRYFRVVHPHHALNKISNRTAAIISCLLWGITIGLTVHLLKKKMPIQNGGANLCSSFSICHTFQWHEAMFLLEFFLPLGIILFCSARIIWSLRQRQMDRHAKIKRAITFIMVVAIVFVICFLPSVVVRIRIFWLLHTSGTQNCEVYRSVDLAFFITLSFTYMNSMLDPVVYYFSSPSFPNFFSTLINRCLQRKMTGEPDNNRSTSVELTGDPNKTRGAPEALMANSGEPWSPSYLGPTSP

The structures appear in SMILES notation. The match of structure and compound is tentative.

In this assay the target is recombinant human nicotinic acid receptor (NAR) (Homo sapiens, UniProt Q8TDS4). Nature of the assay: Nicotinic Acid Receptor Assay: inhibition of forskolin-stimulated cAMP accumulation in CHO cells (MesoScale Discovery cAMP kit). In kind it is cell-based. The note with it: read-out: NA EC50 camp, CHO cells expressing recombinant human NAR.

For orientation: EC50 means the concentration needed to bring the measured effect to its halfway point. As for `CCCCc1cc(=O)oc2nc(O[C@H]3C[C@@H](COCc4ccccc4)C3)[nH]c(=O)c12`, the EC50 was found to be 44 nM.
